Publication PMC8961908
Read-outs that look alike come from different tables or passages of the source. These are yes or no findings as the source states them, for the method shown. Binding seen in cells or lysates may run through a third protein. Here binding means that the protein was enriched with, or labelled near, the bait; the list need not be complete. For some of these results: Tags and fused reporters may be left off the sequences shown.

By UniProt entry, the sequences of proteins in these tests, tags left out.
UniProt O95197: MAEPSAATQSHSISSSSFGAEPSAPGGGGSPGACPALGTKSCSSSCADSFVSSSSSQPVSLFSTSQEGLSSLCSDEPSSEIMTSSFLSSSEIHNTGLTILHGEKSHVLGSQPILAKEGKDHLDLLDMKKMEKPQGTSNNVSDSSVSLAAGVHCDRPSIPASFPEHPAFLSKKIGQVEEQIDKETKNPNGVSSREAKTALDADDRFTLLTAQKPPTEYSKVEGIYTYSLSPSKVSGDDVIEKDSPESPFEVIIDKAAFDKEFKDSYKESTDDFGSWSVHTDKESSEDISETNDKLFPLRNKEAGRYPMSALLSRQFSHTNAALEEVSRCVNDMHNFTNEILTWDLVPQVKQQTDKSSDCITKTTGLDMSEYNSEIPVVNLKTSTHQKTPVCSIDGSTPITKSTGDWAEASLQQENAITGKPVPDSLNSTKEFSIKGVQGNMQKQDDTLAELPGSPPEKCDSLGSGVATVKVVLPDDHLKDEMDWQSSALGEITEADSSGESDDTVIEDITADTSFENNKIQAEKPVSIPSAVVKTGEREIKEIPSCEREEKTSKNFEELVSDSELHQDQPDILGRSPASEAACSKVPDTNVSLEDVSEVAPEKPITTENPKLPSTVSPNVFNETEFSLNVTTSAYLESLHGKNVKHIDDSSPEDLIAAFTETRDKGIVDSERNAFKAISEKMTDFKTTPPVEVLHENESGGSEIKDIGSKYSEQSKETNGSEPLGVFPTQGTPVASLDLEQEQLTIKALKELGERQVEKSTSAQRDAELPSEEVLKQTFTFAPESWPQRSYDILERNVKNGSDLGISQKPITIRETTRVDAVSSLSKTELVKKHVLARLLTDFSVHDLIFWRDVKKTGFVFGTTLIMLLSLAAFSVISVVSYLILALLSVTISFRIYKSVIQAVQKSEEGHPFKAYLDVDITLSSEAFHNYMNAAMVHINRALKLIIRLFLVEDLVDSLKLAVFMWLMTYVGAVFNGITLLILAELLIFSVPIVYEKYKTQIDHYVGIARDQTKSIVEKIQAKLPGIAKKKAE

B1: inositol polyphosphate 5-phosphatase K (INPP5K) (enzyme, UniProt Q9BT40 1-448)
chain: MSSRKLSGPKGRRLSIHVVTWNVASAAPPLDLSDLLQLNNRNLNLDIYVIGLQELNSGIISLLSDAAFNDSWSSFLMDVLSPLSFIKVSHVRMQGILLLVFAKYQHLPYIQILSTKSTPTGLFGYWGNKGGVNICLKLYGYYVSIINCHLPPHISNNYQRLEHFDRILEMQNCEGRDIPNILDHDLIIWFGDMNFRIEDFGLHFVRESIKNRCYGGLWEKDQLSIAKKHDPLLREFQEGRLLFPPTYKFDRNSNDYDTSEKKRKPAWTDRILWRLKRQPCAGPDTPIPPASHFSLSLRGYSSHMTYGISDHKPVSGTFDLELKPLVSAPLIVLMPEDLWTVENDMMVSYSSTSDFPSSPWDWIGLYKVGLRDVNDYVSYAWVGDSKVSCSDNLNQVYIDISNIPTTEDEFLLCYYSNSLRSVVGISRPFQIPPGSLREDPLGEAQPQI
B2: oxysterol-binding protein-related protein 8 (ORP8), endogenous (protein, UniProt Q9BZF1 1-889)
chain: MEGGLADGEPDRTSLLGDSKDVLGPSTVVANSDESQLLTPGKMSQRQGKEAYPTPTKDLHQPSLSPASPHSQGFERGKEDISQNKDESSLSMSKSKSESKLYNGSEKDSSTSSKLTKKESLKVQKKNYREEKKRATKELLSTITDPSVIVMADWLKIRGTLKSWTKLWCVLKPGVLLIYKTQKNGQWVGTVLLNACEIIERPSKKDGFCFKLFHPLEQSIWAVKGPKGEAVGSITQPLPSSYLIIRATSESDGRCWMDALELALKCSSLLKRTMIREGKEHDLSVSSDSTHVTFYGLLRANNLHSGDNFQLNDSEIERQHFKDQDMYSDKSDKENDQEHDESDNEVMGKSEESDTDTSERQDDSYIEPEPVEPLKETTYTEQSHEELGEAGEASQTETVSEENKSLIWTLLKQVRPGMDLSKVVLPTFILEPRSFLDKLSDYYYHADFLSEAALEENPYFRLKKVVKWYLSGFYKKPKGLKKPYNPILGETFRCLWIHPRTNSKTFYIAEQVSHHPPISAFYVSNRKDGFCLSGSILAKSKFYGNSLSAILEGEARLTFLNRGEDYVMTMPYAHCKGILYGTMTLELGGTVNITCQKTGYSAILEFKLKPFLGSSDCVNQISGKLKLGKEVLATLEGHWDSEVFITDKKTDNSEVFWNPTPDIKQWRLIRHTVKFEEQGDFESEKLWQRVTRAINAKDQTEATQEKYVLEEAQRQAARDRKTKNEEWSCKLFELDPLTGEWHYKFADTRPWDPLNDMIQFEKDGVIQTKVKHRTPMVSVPKMKHKPTRQQKKVAKGYSSPEPDIQDSSGSEAQSVKPSTRRKKGIELGDIQSSIESIKQTQEEIKRNIMALRNHLVSSTPATDYFLQQKDYFIIFLLILLQVIINFMFK
B3: extended-synaptotagmin 1 (E-SYT1) (protein, UniProt Q9BSJ8 1-1104)
chain: MERSPGEGPSPSPMDQPSAPSDPTDQPPAAHAKPDPGSGGQPAGPGAAGEALAVLTSFGRRLLVLIPVYLAGAVGLSVGFVLFGLALYLGWRRVRDEKERSLRAARQLLDDEEQLTAKTLYMSHRELPAWVSFPDVEKAEWLNKIVAQVWPFLGQYMEKLLAETVAPAVRGSNPHLQTFTFTRVELGEKPLRIIGVKVHPGQRKEQILLDLNISYVGDVQIDVEVKKYFCKAGVKGMQLHGVLRVILEPLIGDLPFVGAVSMFFIRRPTLDINWTGMTNLLDIPGLSSLSDTMIMDSIAAFLVLPNRLLVPLVPDLQDVAQLRSPLPRGIIRIHLLAARGLSSKDKYVKGLIEGKSDPYALVRLGTQTFCSRVIDEELNPQWGETYEVMVHEVPGQEIEVEVFDKDPDKDDFLGRMKLDVGKVLQASVLDDWFPLQGGQGQVHLRLEWLSLLSDAEKLEQVLQWNWGVSSRPDPPSAAILVVYLDRAQDLPLKKGNKEPNPMVQLSIQDVTQESKAVYSTNCPVWEEAFRFFLQDPQSQELDVQVKDDSRALTLGALTLPLARLLTAPELILDQWFQLSSSGPNSRLYMKLVMRILYLDSSEICFPTVPGCPGAWDVDSENPQRGSSVDAPPRPCHTTPDSQFGTEHVLRIHVLEAQDLIAKDRFLGGLVKGKSDPYVKLKLAGRSFRSHVVREDLNPRWNEVFEVIVTSVPGQELEVEVFDKDLDKDDFLGRCKVRLTTVLNSGFLDEWLTLEDVPSGRLHLRLERLTPRPTAAELEEVLQVNSLIQTQKSAELAAALLSIYMERAEDLPLRKGTKHLSPYATLTVGDSSHKTKTISQTSAPVWDESASFLIRKPHTESLELQVRGEGTGVLGSLSLPLSELLVADQLCLDRWFTLSSGQGQVLLRAQLGILVSQHSGVEAHSHSYSHSSSSLSEEPELSGGPPHITSSAPELRQRLTHVDSPLEAPAGPLGQVKLTLWYYSEERKLVSIVHGCRSLRQNGRDPPDPYVSLLLLPDKNRGTKRRTSQKKRTLSPEFNERFEWELPLDEAQRRKLDVSVKSNSSFMSRERELLGKVQLDLAETDLSQGVARWYDLMDNKDKGSS

What was measured:
[1] = biological target: ADP-ribosylation factor-like 6 interacting protein 1 (ARL6IP1), endogenously C-terminally tagged (human (endogenous in U-2 OS)) (UniProt Q15041); test: affinity purification with mass spectrometry; tandem-affinity purification of endogenously tagged ARL6IP1 from U-2 OS lysate (1% NP-40 lysis buffer): anti-FLAG M2 agarose, elution with 3xFLAG peptide, then SPOT-trap magnetic agarose, 4 °C; in-gel tryptic digestion and label-free quantitation; unmodified U-2 OS cells as negative control
[2] = biological target: ADP-ribosylation factor-like 6 interacting protein 1 (ARL6IP1), endogenously C-terminally tagged (human (endogenous in U-2 OS)) (UniProt Q15041); test: as above; remark: listed apart in the source

Row | Molecule | binding [1] | binding [2]
1 | reticulon 3 (RTN3) (from UniProt O95197 1-1032) | binds | 
2 | B1 |  | binds
3 | B2 |  | binds
4 | B3 |  | binds
